Data on one sequence can be found in PMC8948245, “Mechanistic insights into the regulation of plant phosphate homeostasis by the rice SPX2 – PHR2 complex” (Nature Communications, 2022).

Amino acid sequences for entries named in this document (tags omitted). Residues count along the entry.
UniProt B8B5N8, 180-313: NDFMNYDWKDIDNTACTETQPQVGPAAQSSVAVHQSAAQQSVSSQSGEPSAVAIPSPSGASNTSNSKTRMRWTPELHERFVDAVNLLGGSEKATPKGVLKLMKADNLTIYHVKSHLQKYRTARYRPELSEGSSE
UniProt B8B5N8, 225-362: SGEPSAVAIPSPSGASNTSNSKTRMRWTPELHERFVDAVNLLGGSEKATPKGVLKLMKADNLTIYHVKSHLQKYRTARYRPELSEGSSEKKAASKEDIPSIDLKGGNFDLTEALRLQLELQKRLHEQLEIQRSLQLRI
UniProt B8B5N8, 225-362 K292A: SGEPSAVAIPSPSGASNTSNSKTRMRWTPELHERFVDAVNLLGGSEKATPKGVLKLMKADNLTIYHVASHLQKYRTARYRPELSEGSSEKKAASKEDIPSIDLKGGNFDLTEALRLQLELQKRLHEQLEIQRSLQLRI
UniProt B8B5N8, 225-362 Q296A: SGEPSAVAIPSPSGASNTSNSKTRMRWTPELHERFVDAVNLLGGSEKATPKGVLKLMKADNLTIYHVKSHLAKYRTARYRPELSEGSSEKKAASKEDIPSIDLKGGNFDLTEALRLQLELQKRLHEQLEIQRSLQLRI
UniProt B8B5N8, 225-362 S293A: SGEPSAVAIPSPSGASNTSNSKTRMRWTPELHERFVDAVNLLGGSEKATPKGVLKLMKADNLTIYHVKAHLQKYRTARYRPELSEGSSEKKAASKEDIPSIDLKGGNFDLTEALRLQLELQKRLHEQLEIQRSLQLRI

Holding throughout (experiment): EMSA
Series [1] addresses PHR2 MYB (EMSA) (Oryza sativa) (UniProt B8B5N8). Particulars: compared with PHR2 MYB-CC; EMSA: 10 nM FAM-DNA, 0.3375-0.8 uM PHR2, 25 mM Tris-HCl pH 8.0, 150 mM NaCl, 5 mM DTT, 10% glycerol, 200 ng/ml heparin, 4 C, 30 min; recombinant protein; protein details: C-terminal 8xHis (general PHR2 cloning).
The target of series [2] is PHR2 MYB-CC (Oryza sativa) (UniProt B8B5N8). To be noted: EMSA: 10 nM FAM-DNA, 0.3375-0.8 uM PHR2, 25 mM Tris-HCl pH 8.0, 150 mM NaCl, 5 mM DTT, 10% glycerol, 200 ng/ml heparin, 4 C, 30 min; recombinant protein; residues 225-362; protein details: C-terminal 8xHis.
Series [3] addresses PHR2 MYB-CC K292A (Oryza sativa) (UniProt B8B5N8). To be noted: EMSA: 10 nM FAM-DNA, 0.3375-0.8 uM PHR2, 25 mM Tris-HCl pH 8.0, 150 mM NaCl, 5 mM DTT, 10% glycerol, 200 ng/ml heparin, 4 C, 30 min; recombinant protein; residues 225-362; protein details: C-terminal 8xHis.
Series [4] concerns the target PHR2 MYB-CC Q296A (Oryza sativa) (UniProt B8B5N8). To be noted: EMSA: 10 nM FAM-DNA, 0.3375-0.8 uM PHR2, 25 mM Tris-HCl pH 8.0, 150 mM NaCl, 5 mM DTT, 10% glycerol, 200 ng/ml heparin, 4 C, 30 min; recombinant protein; residues 225-362; protein details: C-terminal 8xHis. A general note: A gel shift assay detects complexes by their altered migration in electrophoresis.
For series [5], the target named is PHR2 MYB-CC S293A (Oryza sativa) (UniProt B8B5N8). To be noted: EMSA: 10 nM FAM-DNA, 0.3375-0.8 uM PHR2, 25 mM Tris-HCl pH 8.0, 150 mM NaCl, 5 mM DTT, 10% glycerol, 200 ng/ml heparin, 4 C, 30 min; recombinant protein; residues 225-362; protein details: C-terminal 8xHis.

For some assays here: The comparison behind a weaker result is the experiment's own reference, which may not be listed here. For some assays here: Construct, isoform or probe ends are uncertain for at least one entry. For some assays here: At least one verdict was read from the data and is not stated in words by the source.

Turning to “AAGCTTGAATATGCAATGGAATATGCTTAG (double strand) [FAM P1BS EMSA probe]”, the binding result is given as “binds more weakly” in series [1]; “binds” in series [2]; “binds more weakly” in series [3]; “binds more weakly” in series [4]; “binds more weakly” in series [5].
